Assay results from PubChem BioAssay AID493014 (National Center for Advancing Translational Sciences (NCATS), 2011).
The other results are listed elsewhere or left out. Shown are side measurements of this screen, not its main read-out; they come without a call. The list favours compounds with an active or inconclusive main result. Potencies come from curve fits of mixed quality, noted in brackets.

Experiment: qHTS Assay to Find Inhibitors of Chronic Active B-Cell Receptor Signaling
Conditions: ABC-DLBCL IkBa-CBG/CBR reporter, luminescence ratio (green luciferase fused to IkBa over red control in TMD8 lymphoma cells), 4 h
In short: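 Compounds up to 46 uM were incubated four hours with TMD8 cells whose green CBG68 luciferase is fused to IkappaBalpha; red CBR luminescence normalised the signal, and concentration-effect curves were fitted to fusion, red and ratio data.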

[1] = measured here: CBR red luminescence, cell number
[2] = measured here: IkBa-CBG green luminescence

With `CC1C(=O)NN=C1C(=O)N/N=C/c1cccs1` (configuration not stated) the AC50 [1] was 11.2 µM [falling, partial curve].
In the case of `CC(=O)c1ccc(NC(=S)NNC(=O)c2ccncc2)cc1`, the AC50 [1] is reported as 1.84 µM [falling, full curve].
In the case of `CN(C)C(=O)c1cn(-c2ccccc2)nc1-c1cc2ccccc2o1`, the AC50 [1] is reported as 15.8 µM [falling, single point].
In the case of `O=C(CNc1ccc(F)cc1)N/N=C/C1CC=CCC1` (configuration not stated), the AC50 [1] is reported as 11.2 µM [falling, partial curve].
With `O=C(NC1CCCCC1)C1Cc2ccccc2CN1S(=O)(=O)c1ccc(F)cc1` (configuration not stated) the AC50 [1] was 23.1 µM [falling, single point].
With `O=C(CSc1nnc(-c2ccccc2)o1)NC1CCCCC1` the AC50 [1] was 0.00517 µM [falling, full curve, poor fit].
With `C/C(=N\NC(=O)c1ccccc1Cl)c1ccccn1` the AC50 [2] was 25.1 µM [falling, single point].
In the case of `CCC(C)(C)C1CCc2nc3ccccc3c(C(=O)OC(C)C(=O)Nc3c(C)n(C)n(-c4ccccc4)c3=O)c2C1` (configuration not stated), the AC50 [1] is reported as 5.17 µM [rising, full curve].
For `O=C(CC1=NC2(CCCC2)Cc2ccccc21)N1CCOCC1`, the AC50 [1] was 11.2 µM [falling, single point].
In the case of `C/C(=N\NC(=O)c1ccco1)c1ccc(C(=O)O)s1`, the AC50 [1] is reported as 10 µM [falling, partial curve, poor fit].
With `COc1ccc(CN2CCNC(=O)C2CC(=O)N2CCCCO2)c(OC)c1` (configuration not stated) the AC50 [1] was 0.708 µM [rising, full curve, poor fit].
In the case of `O=C(NNC(=O)c1cc2ccccc2oc1=O)c1ccccc1[N+](=O)[O-]`, the AC50 [1] is reported as 2.82 µM [falling, partial curve, poor fit].
With `COc1ccccc1NC(=O)CSc1nnc(C2CCCCC2)n1-c1ccccc1` the AC50 [1] was 10 µM [falling, partial curve, poor fit].
For `CC1CCN(C(=O)COC(=O)c2n[nH]c(=O)c3ccccc23)CC1`, the AC50 [1] was 6.51 µM [rising, single point].
For `Cc1nc2ccccc2n1C(=O)c1ccccc1[N+](=O)[O-]`, the AC50 [1] was 0.82 µM [rising, full curve, poor fit].
In the case of `COc1cccc(C(=O)Nc2ccc(NC(=O)C3CC=CCC3C(=O)O)cc2)c1` (configuration not stated), the AC50 [1] is reported as 6.31 µM [falling, partial curve].
With `Cc1ccn2cc(-c3ccc(O)c(O)c3)nc2c1` the AC50 [1] was 0.112 µM [rising, full curve, poor fit].
With `Cc1ccc(N2C(=O)C3C(C2=O)C(C(=O)c2ccc(Cl)cc2)N2CCCC32)cc1` (configuration not stated) the AC50 [1] was 11.6 µM [falling, partial curve].
With `O=C(Nc1nnc(SCC(=O)N2CCCCC2)s1)C1CCCCC1` the AC50 [1] was 25.9 µM [rising, partial curve, poor fit].
With `CCOC(=O)c1c(C2COc3ccccc3O2)csc1N` (configuration not stated) the AC50 [1] was 23.1 µM [falling, partial curve, poor fit].
With `O=C(O)CCC(=O)Nc1ccc(Cc2ccc(NC(=O)CCC(=O)O)cc2)cc1` the AC50 [1] was 10.3 µM [rising, single point].
With `CCCOc1ccc(/C(O)=C2/C(=O)C(=O)N(CCN(C)C)C2c2ccco2)cc1` (configuration not stated) the AC50 [1] was 2.91 µM [rising, partial curve, poor fit].
In the case of `Cc1ccc2nc(/C(C#N)=C/c3ccccc3C(=O)O)[nH]c2c1`, the AC50 [1] is reported as 11.2 µM [falling, single point].
In the case of `COc1ccc(CCNC(=O)C2CCCN(S(=O)(=O)c3cnc[nH]3)C2)cc1OC` (configuration not stated), the AC50 [1] is reported as 3.26 µM [rising, partial curve, poor fit].
In the case of `Cc1ccc(C2=Nc3ccccc3N(C(=O)c3ccccc3)C(C)C2)cc1` (configuration not stated), the AC50 [1] is reported as 25.9 µM [falling, single point].
For `O=C(Nc1nc2c(ccc3ccccc32)s1)c1ccco1`, the AC50 [1] was 6.31 µM [falling, partial curve, poor fit].
For `Clc1ccc(-c2nnc(Sc3nc4ccccc4o3)c3ccccc23)cc1`, the AC50 [1] was 8.91 µM [rising, partial curve].
With `Cc1cccc(C)c1N(CC(O)Cn1c2ccccc2c2ccccc21)S(C)(=O)=O` (configuration not stated) the AC50 [1] was 16.4 µM [falling, single point].
With `CC1CCCN(C(=O)c2ccc(OC3CCN(CCc4ccccc4)CC3)cc2)C1` (configuration not stated) the AC50 [1] was 35.5 µM [falling, partial curve, poor fit].
For `COc1cc(CNC(C)(C)CO)cc(Br)c1OCc1ccccc1`, the AC50 [1] was 35.5 µM [falling, single point].
In the case of `CCc1nc(N=Nc2c(O)[nH]c3ccccc23)c2c3c(sc2n1)CCC3`, the AC50 [1] is reported as 0.0146 µM [rising, full curve].
For `Cc1nnc(SCC(=O)Nc2cc(C(C)(C)C)nn2-c2ccccc2)s1`, the AC50 [1] was 5.17 µM [rising, single point].
For `N#Cc1c(Cl)nsc1NN`, the AC50 [1] was 35.5 µM [falling, single point].
For `Cc1ccc(-c2ccc(/C=N/N3C(=O)C4C5C=CC(CC5)C4C3=O)o2)c([N+](=O)[O-])c1` (configuration not stated), the AC50 [1] was 10.3 µM [rising, partial curve, poor fit].
In the case of `CCOC(=O)CC1C(=O)NCCN1S(=O)(=O)c1cccc(C(F)(F)F)c1` (configuration not stated), the AC50 [1] is reported as 0.891 µM [rising, full curve, poor fit].
For `CCc1nnc(NC(=O)c2cccc(C(=O)Nc3nnc(CC)s3)n2)s1`, the AC50 [1] was 6.51 µM [falling, single point].
In the case of `CC1(CC(=O)N/N=C/c2ccc(-c3ccc(C(=O)O)cc3)o2)OCCO1`, the AC50 [1] is reported as 22.4 µM [falling, single point].
With `CCN1CCC(=NNC(=O)c2ccco2)CC1` the AC50 [1] was 23.1 µM [falling, single point].
In the case of `Cc1ccc(S(=O)(=O)Nc2c3ccccc3nc(=O)n2-c2ccccc2)cc1`, the AC50 [1] is reported as 7.31 µM [rising, partial curve].
In the case of `O=C(CN(c1ccccc1)S(=O)(=O)c1ccccc1)N/N=C/c1ccc(OC2CSC2)cc1`, the AC50 [1] is reported as 7.31 µM [falling, partial curve, poor fit].
With `CC1CC(C)CN(C(=O)CSc2nc(Cc3cccs3)nc3ccccc23)C1` (configuration not stated) the AC50 [1] was 7.31 µM [falling, partial curve].
With `O=C(Nc1ncc([N+](=O)[O-])s1)c1cccc([N+](=O)[O-])c1` the AC50 [1] was 0.316 µM [falling, full curve].
In the case of `CCC(C)Nc1nc(C)nc2c1oc1ccccc12` (configuration not stated), the AC50 [1] is reported as 1 µM [falling, full curve, poor fit].
With `CN1CCN(c2nc3c(c(=O)[nH]c(=O)n3C)n2CCOc2ccccc2)CC1` the AC50 [1] was 25.9 µM [rising, single point].
With `CCCc1cc(C(=O)Nc2sc(C)c(CC)c2C#N)no1` the AC50 [1] was 3.66 µM [rising, partial curve].
For `Cc1ccnc(NC(=O)CCCOc2ccc(Cl)cc2C)c1`, the AC50 [1] was 0.708 µM [rising, full curve, poor fit].
With `Cc1ccc(/C=N/Nc2nncc(-c3ccccc3)n2)o1` the AC50 [1] was 17.8 µM [falling, single point].
In the case of `O=C(CN(c1cccc(Cl)c1)S(=O)(=O)c1ccc(Cl)cc1)N1CCc2ccccc2C1`, the AC50 [1] is reported as 29.1 µM [falling, single point].
For `CCOC(=O)CC(=O)Nc1ccc(C(=O)OCC)cc1`, the AC50 [1] was 1.3 µM [falling, full curve].
For `Cc1ccc(S(=O)(=O)N2CCCN(S(=O)(=O)c3ccc(C)c(C)c3)CC2)cc1C`, the AC50 [1] was 23.1 µM [falling, partial curve].
For `COc1ccc(-c2nnc3ccc(SCC(=O)Nc4nccs4)nn23)cc1OC`, the AC50 [1] was 6.51 µM [falling, single point].
In the case of `CCCNC(=O)c1nnsc1S(=O)c1ccc(Cl)cc1` (configuration not stated), the AC50 [1] is reported as 2.82 µM [falling, partial curve, poor fit] and the AC50 [2] is reported as 3.98 µM [rising, full curve].
With `N#CC(C#N)=C1C=CC=CN1/C(=C\c1ccco1)C(=O)c1ccc(Br)cc1` the AC50 [1] was 2.59 µM [falling, full curve].
For `COc1ccccc1C1c2[nH]c3ccccc3c2C[C@H]2C(=O)N(C3CCN(Cc4ccccc4)CC3)CC(=O)N12` (some centres not stated), the AC50 [1] was 10 µM [falling, partial curve, poor fit].
In the case of `Cc1ccccc1-n1nnc2c(=O)oc3ccccc3c21`, the AC50 [1] is reported as 29.1 µM [falling, single point].
With `COC(=O)C1=C(C)N(Cc2ccccc2)C(=NCCc2c[nH]c3ccccc23)N[C@H]1c1ccccc1` the AC50 [1] was 35.5 µM [falling, single point].
With `COc1ccccc1Nc1ccc([N+](=O)[O-])cn1` the AC50 [1] was 12.6 µM [falling, single point].
With `COc1ccccc1NC(=O)C(=O)N1CCCC1` the AC50 [1] was 35.5 µM [falling, partial curve, poor fit].
In the case of `O=C(O)CC1=C(Nc2ccccc2)C(=O)N(c2ccccc2)C1c1ccc(Br)cc1` (configuration not stated), the AC50 [1] is reported as 12.6 µM [falling, partial curve, poor fit].
In the case of `Cc1cccc(C)c1OCc1cc(C(=O)N(C)Cc2cc(C3CC3)n[nH]2)no1`, the AC50 [1] is reported as 35.5 µM [falling, single point].
For `Cc1cc(C)cc(OCC(O)CN2CC(C)OC(C)C2)c1` (configuration not stated), the AC50 [1] was 2.82 µM [rising, full curve].
With `O=C(Nc1cc(Cl)ccc1Cl)C1(c2cccs2)CCOCC1` the AC50 [1] was 15.8 µM [rising, partial curve, poor fit].
With `CCc1ccc(NC(=O)C2CCCN(S(=O)(=O)c3cnc[nH]3)C2)cc1` (configuration not stated) the AC50 [1] was 14.1 µM [falling, partial curve].
For `O=C(NN=C1c2ccccc2-c2ccccc21)c1cccc(Br)c1`, the AC50 [1] was 0.517 µM [rising, full curve, poor fit].
For `O=C(O)c1cc(O)c2c(c1)C(=O)c1cccc(O)c1C2=O`, the AC50 [1] was 1.84 µM [falling, full curve] and the AC50 [2] was 16.4 µM [rising, single point].
